Assay [1] deals with T1, GFP-tagged wild-type Dab1 (UniProt P97318).
T1 sequence: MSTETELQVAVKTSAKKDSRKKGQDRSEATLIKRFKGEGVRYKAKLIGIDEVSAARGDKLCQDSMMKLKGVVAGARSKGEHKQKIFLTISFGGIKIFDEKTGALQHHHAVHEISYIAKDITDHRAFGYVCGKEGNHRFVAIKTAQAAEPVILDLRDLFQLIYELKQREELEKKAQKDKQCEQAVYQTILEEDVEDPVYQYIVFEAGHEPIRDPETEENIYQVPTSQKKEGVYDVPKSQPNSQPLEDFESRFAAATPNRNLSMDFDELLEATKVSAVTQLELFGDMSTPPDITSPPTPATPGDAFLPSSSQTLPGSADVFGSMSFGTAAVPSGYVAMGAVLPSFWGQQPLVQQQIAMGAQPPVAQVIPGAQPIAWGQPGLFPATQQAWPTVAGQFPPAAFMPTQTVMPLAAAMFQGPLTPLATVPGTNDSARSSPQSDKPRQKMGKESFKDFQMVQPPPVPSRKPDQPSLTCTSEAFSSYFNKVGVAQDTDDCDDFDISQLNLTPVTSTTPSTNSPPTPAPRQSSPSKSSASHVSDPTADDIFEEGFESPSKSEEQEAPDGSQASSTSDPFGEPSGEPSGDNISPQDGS
Nature of the assay: co-IP; COS7 cells co-transfected with double-tagged ApoER2 and Fyn, Dab1-GFP, or both; lysates in IP buffer (50 mM Tris-HCl pH 8.0, 4.5 mM NaCl, 1% Nonidet P-40); IP with anti-GFP (Dab1) and blot for HA (ApoER2), or IP with anti-HA (ApoER2) and blot for Dab1-GFP; rabbit or mouse IgG as control; also after DMSO or 10 uM PP2 for 6 hours.

Assay [2] deals with Double-tagged ApoER2 (HA-ApoER2-myc), wild-type murine Apolipoprotein E Receptor 2 (mouse). The description is as above.

No constants are given. Whether binding was seen depends on the method and setting. In cells and extracts the contact can be indirect. Binding calls can cover weak binding; strength is not graded here. Where a sequence is shown, tags or fusion partners need not be part of it.

Turning to “Double-tagged ApoER2 (HA-ApoER2-myc), wild-type murine Apolipoprotein E Receptor 2 (mouse)”, in assay [1], the binding entry was “binds”.

B1: GFP-tagged wild-type Dab1 (protein, UniProt P97318 1-588)
chain: MSTETELQVAVKTSAKKDSRKKGQDRSEATLIKRFKGEGVRYKAKLIGIDEVSAARGDKLCQDSMMKLKGVVAGARSKGEHKQKIFLTISFGGIKIFDEKTGALQHHHAVHEISYIAKDITDHRAFGYVCGKEGNHRFVAIKTAQAAEPVILDLRDLFQLIYELKQREELEKKAQKDKQCEQAVYQTILEEDVEDPVYQYIVFEAGHEPIRDPETEENIYQVPTSQKKEGVYDVPKSQPNSQPLEDFESRFAAATPNRNLSMDFDELLEATKVSAVTQLELFGDMSTPPDITSPPTPATPGDAFLPSSSQTLPGSADVFGSMSFGTAAVPSGYVAMGAVLPSFWGQQPLVQQQIAMGAQPPVAQVIPGAQPIAWGQPGLFPATQQAWPTVAGQFPPAAFMPTQTVMPLAAAMFQGPLTPLATVPGTNDSARSSPQSDKPRQKMGKESFKDFQMVQPPPVPSRKPDQPSLTCTSEAFSSYFNKVGVAQDTDDCDDFDISQLNLTPVTSTTPSTNSPPTPAPRQSSPSKSSASHVSDPTADDIFEEGFESPSKSEEQEAPDGSQASSTSDPFGEPSGEPSGDNISPQDGS
In the case of B1, the binding entry in assay [2] is given as “binds”.

For the origin of these results see article PMC4207760.
